Measured values reported in the supplement of paper PMC11732987, “Enantioselective OTUD7B fragment discovery through chemoproteomics screening and high-throughput optimisation” (Communications Chemistry, 2025).
Some of the results follow. The data scatter; read single values as rough.

Amino acid sequences for entries named in this document (tags omitted). A change or cut given only in a name is not applied to a line headed by its entry.
UniProt Q92844: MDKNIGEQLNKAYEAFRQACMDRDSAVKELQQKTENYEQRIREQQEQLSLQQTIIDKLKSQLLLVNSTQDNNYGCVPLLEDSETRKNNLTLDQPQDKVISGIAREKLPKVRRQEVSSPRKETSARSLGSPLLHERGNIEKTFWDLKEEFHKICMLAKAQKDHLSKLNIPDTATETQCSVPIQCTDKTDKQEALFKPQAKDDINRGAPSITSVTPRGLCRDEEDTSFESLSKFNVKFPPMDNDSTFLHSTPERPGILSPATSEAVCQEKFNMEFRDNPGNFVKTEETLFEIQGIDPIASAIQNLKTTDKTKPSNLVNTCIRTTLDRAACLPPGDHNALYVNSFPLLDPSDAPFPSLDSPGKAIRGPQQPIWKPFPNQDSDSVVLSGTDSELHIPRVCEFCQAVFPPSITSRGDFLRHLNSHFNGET
UniProt Q96RS0: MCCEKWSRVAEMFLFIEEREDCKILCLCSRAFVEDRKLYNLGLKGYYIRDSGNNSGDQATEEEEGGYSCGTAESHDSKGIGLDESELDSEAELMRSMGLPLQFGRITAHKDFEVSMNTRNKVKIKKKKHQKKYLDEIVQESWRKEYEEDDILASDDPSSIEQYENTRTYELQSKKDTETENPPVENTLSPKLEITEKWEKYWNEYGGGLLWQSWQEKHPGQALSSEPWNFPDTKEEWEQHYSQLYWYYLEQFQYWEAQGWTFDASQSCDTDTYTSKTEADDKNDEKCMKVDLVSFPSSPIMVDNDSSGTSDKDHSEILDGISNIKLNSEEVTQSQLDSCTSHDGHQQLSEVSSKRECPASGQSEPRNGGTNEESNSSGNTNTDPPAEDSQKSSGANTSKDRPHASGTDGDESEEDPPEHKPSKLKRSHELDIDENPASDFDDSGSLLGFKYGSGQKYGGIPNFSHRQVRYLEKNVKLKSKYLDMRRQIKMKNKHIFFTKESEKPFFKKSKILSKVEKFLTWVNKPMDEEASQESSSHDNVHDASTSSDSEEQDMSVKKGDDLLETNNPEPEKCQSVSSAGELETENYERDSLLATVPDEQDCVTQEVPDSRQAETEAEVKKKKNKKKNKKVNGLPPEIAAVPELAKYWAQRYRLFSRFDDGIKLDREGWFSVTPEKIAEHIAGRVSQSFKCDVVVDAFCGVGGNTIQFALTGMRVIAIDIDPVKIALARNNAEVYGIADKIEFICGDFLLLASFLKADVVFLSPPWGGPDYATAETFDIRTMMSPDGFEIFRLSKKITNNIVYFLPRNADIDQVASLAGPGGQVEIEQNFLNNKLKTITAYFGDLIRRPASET
UniProt Q8IYQ7: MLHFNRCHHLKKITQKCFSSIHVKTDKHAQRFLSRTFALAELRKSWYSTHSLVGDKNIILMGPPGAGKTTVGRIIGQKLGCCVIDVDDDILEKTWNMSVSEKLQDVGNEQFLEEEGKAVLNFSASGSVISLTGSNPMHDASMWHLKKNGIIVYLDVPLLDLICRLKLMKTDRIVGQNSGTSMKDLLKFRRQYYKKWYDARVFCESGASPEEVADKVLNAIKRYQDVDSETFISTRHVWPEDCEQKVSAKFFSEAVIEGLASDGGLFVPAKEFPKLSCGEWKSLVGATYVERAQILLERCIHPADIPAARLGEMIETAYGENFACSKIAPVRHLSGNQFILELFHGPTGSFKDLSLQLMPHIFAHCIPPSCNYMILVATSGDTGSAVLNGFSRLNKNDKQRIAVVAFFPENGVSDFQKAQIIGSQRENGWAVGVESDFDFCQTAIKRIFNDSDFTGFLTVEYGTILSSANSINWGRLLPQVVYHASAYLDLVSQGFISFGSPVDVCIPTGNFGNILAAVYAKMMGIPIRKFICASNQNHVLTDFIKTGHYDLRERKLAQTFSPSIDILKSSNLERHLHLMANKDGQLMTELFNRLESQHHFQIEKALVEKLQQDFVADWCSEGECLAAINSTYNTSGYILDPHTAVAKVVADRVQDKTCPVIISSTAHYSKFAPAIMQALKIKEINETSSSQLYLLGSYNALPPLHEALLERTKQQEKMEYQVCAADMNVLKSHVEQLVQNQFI
UniProt Q9BU02: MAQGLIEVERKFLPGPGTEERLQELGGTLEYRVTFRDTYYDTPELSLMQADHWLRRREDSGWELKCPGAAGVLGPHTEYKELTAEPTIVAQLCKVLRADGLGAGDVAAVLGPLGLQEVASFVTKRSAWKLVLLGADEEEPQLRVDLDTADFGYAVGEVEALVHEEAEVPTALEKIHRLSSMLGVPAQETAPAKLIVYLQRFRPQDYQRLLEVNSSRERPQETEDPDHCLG
UniProt Q9Y6I9: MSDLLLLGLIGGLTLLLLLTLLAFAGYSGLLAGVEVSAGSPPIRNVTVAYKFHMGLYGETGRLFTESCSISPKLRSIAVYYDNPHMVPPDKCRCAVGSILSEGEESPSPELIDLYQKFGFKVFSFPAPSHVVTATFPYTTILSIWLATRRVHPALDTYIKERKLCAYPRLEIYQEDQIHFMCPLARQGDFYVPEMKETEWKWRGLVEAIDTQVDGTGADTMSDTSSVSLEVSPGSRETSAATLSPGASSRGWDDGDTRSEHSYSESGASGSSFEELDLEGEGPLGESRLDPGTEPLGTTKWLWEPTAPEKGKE
UniProt Q86TI0: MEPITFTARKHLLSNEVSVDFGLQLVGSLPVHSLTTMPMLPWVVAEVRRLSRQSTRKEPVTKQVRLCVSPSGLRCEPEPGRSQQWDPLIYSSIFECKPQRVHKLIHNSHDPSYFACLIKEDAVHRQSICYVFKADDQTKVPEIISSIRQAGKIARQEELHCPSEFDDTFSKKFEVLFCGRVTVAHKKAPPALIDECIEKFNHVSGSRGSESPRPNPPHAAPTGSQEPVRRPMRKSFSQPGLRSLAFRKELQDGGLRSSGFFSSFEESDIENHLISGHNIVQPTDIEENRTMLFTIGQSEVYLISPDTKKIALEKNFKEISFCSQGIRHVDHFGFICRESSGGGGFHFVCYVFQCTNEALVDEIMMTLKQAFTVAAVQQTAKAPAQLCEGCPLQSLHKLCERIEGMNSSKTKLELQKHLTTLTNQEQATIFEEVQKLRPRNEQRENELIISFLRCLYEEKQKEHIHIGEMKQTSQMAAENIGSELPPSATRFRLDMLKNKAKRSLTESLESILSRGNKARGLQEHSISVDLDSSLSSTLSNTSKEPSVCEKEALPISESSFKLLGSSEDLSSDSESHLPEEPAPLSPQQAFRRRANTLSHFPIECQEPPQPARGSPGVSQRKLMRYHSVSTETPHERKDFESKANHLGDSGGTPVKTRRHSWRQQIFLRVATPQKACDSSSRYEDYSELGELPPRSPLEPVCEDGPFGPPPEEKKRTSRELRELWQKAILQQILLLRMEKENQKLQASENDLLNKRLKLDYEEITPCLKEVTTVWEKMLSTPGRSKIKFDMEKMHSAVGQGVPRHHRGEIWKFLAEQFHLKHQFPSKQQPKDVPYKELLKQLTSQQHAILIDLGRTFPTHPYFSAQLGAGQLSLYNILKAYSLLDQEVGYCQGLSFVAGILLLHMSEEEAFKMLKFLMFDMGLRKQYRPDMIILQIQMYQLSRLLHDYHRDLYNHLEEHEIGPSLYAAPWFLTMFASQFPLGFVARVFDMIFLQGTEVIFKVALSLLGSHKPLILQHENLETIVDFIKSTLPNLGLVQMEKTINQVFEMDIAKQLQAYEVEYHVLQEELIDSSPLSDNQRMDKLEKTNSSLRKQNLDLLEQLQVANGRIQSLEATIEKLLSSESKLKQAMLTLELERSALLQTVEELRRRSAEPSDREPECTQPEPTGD

Experiments:
[1] = compound: ClCC(=O)N[C@@H]1CCCc2ccccc12; experiment: log2 mean competition ratio of IA-DTB cysteine labelling (DMSO/compound) (log2 ratio); higher = stronger cysteine engagement by compound; settings: treatment time: 4 h, cell line lysate: HEK293T
Experimental: (§1)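 IA-DTB competitive cysteine chemoproteomics in HEK293T RIPA lysate. Lysates were treated with compound 29 or 30 at 50 or 200 µM for 4 h, then IA-DTB (500 µM, 1 h), trypsin-digested, NeutrAvidin-enriched and analysed by diaPASEF. Competition ratio = intensity DMSO / intensity compound (n=4 treated, n=64 DMSO); binding: mean log2 CR ≥ 1 and p ≤ 0.05 plus QC filters. Target is the cysteine site.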

[2] = compound: ClCC(=O)N[C@H]1CCCc2ccccc12; experiment: as above; settings: treatment time: 4 h, cell line lysate: HEK293T
Experimental: as §1

Target	log2 mean competition ratio ([1]; 50 µM)	log2 mean competition ratio ([1]; 200 µM)	log2 mean competition ratio ([2]; 50 µM)	log2 mean competition ratio ([2]; 200 µM)
TANK C318 (UniProt Q92844)	0.055	0.294	0.139	0.37
TGS1 C357 (UniProt Q96RS0)	-0.157	0.112	-0.304	0.0574
THNSL1 C723 (UniProt Q8IYQ7)	0.0457	0.0164	-0.139	0.12
THTPA C228 (UniProt Q9BU02)	-0.0132	0.182	-0.26	0.189
TEX264 C182 (UniProt Q9Y6I9)	-0.142	0.575	-0.372	0.326
TEPSIN C31	-0.194	-0.0805	-0.482	0.197
TBX2 C356	0.041	0.123	0.335	0.0197
TBC1D1 C67 (UniProt Q86TI0)	0.112	0.273	-0.396	0.407
